According to PubChem BioAssay AID330 (DTP/NCI, 2004):
The list does not hold the whole screen: it is rich in T/C values a quarter to a half above the control, in often repeated tests (any T/C) and in doses without a T/C. Further doses and runs are listed elsewhere. T/C: endpoint of the treated group in % of that of the vehicle group. Some entries give survivors of the animals treated and no T/C: the source files T/C as zero there, which appears to mark a toxic dose or a test without result, not a measured value. Some survivor counts are full or nearly so, which does not show that the dose was tolerated: survival well below the control is almost never listed, so the zero probably covers shortened survival too. Survivors were counted at the toxicity check, usually on the fifth day, unless a day is given; later deaths do not show. Schedule codes are those of the source, taken here to give the interval after Q, in days (D) or hours (H), and the number of doses after X. Some entries were tested several times; the results are listed from low to high. Where survival is the endpoint, this PubChem deposit counts one and a half times the control or more as active, and values a quarter to a half above the control carry no call in these data; other NCI protocols may use other cut-offs. Some T/C values carry the count of animals alive at the toxicity check (mostly the fifth day); without a count, all were alive then.

Test system: P388 leukemia ip, CD2F1 mice, survival T/C
Assay: NCI In Vivo Anticancer Drug Screen. Data for tumor model P388 Leukemia (intraperitoneal) in CD2F1 (CDF1) mice
Conditions: T/C endpoint: median survival time, higher T/C = longer survival
[1] = dose: 240.0 mg/kg/injection, schedule: Q01DX005 (ip), vehicle: Klucel (hydroxypropylcellulose) (HPC)
[2] = dose: 200.0 mg/kg/injection, schedule: Q01DX005 (ip), vehicle: Klucel (hydroxypropylcellulose) (HPC)
[3] = dose: 50.0 mg/kg/injection, schedule: Q01DX009 (ip), vehicle: saline with Tween-80
[4] = dose: 50.0 mg/kg/injection, schedule: Q01DX009 (ip), vehicle: saline
[5] = dose: 100.0 mg/kg/injection, schedule: Q01DX009 (ip), vehicle: saline with Tween-80
[6] = dose: 100.0 mg/kg/injection, schedule: Q01DX009 (ip), vehicle: saline
[7] = dose: 200.0 mg/kg/injection, schedule: Q01DX009 (ip), vehicle: saline
[8] = dose: 200.0 mg/kg/injection, schedule: Q01DX009 (ip), vehicle: saline with Tween-80
[9] = dose: 50.0 mg/kg/injection, schedule: Q01DX005 (ip), vehicle: Klucel (hydroxypropylcellulose) (HPC)
[10] = dose: 100.0 mg/kg/injection, schedule: Q01DX005 (ip), vehicle: Klucel (hydroxypropylcellulose) (HPC)
[11] = dose: 50.0 mg/kg/injection, schedule: Q01DX009 (ip), vehicle: distilled water + Tween-80

NC(N)=NS(=O)(=O)c1ccc(NCc2c3ccccc3nc3ccccc23)cc1
T/C (dose: 6.25 mg/kg/injection, schedule: Q04DX002 (ip), vehicle: Klucel (hydroxypropylcellulose) (HPC)): 126 % of control | T/C (dose: 12.5 mg/kg/injection, schedule: Q04DX002 (ip), vehicle: Klucel (hydroxypropylcellulose) (HPC)): 126 % of control | T/C (dose: 25.0 mg/kg/injection, schedule: Q04DX002 (ip), vehicle: Klucel (hydroxypropylcellulose) (HPC)): 140 % of control | T/C (dose: 50.0 mg/kg/injection, schedule: Q04DX002 (ip), vehicle: Klucel (hydroxypropylcellulose) (HPC)): 145 % of control | T/C (dose: 50.0 mg/kg/injection, schedule: Q04DX003 (ip), vehicle: Klucel (hydroxypropylcellulose) (HPC)): 148 % of control | T/C (dose: 100.0 mg/kg/injection, schedule: Q04DX002 (ip), vehicle: Klucel (hydroxypropylcellulose) (HPC)): 140 % of control | T/C (dose: 100.0 mg/kg/injection, schedule: Q04DX003 (ip), vehicle: Klucel (hydroxypropylcellulose) (HPC)): 144 % of control | T/C (dose: 200.0 mg/kg/injection, schedule: Q04DX002 (ip), vehicle: Klucel (hydroxypropylcellulose) (HPC)): 140 % of control | T/C (dose: 200.0 mg/kg/injection, schedule: Q04DX003 (ip), vehicle: Klucel (hydroxypropylcellulose) (HPC)): 144 % of control | T/C (dose: 400.0 mg/kg/injection, schedule: Q04DX002 (ip), vehicle: Klucel (hydroxypropylcellulose) (HPC)): 145 % of control

Clc1cccc2c(SCCCCCCSc3c4ccccc4nc4c(Cl)cccc34)c3ccccc3nc12
survivor count [1]: 6 of 6

Cn1c(=O)oc2cc([N+](=O)[O-])c(Cl)cc21
survivor count [2]: 1 of 6

COc1cc(/C=C/c2ccc3ccccc3n2)cc(OC)c1OC
survivor count (dose: 400.0 mg/kg/injection, schedule: Q01DX009 (ip), vehicle: saline with Tween-80): 6 of 6

O=C(C[n+]1ccccc1)N/N=C/c1ccc([N+](=O)[O-])s1
survivor count [3]: 3 of 6 | survivor count [4]: 0 of 6 | survivor count [5]: 0 of 6 | survivor count [6]: 0 of 6 | survivor count [7]: 0 of 6

O=P(c1ccccc1)(c1ccccc1)c1ccccc1.O=P(c1ccccc1)(c1ccccc1)c1ccccc1.O=P(c1ccccc1)(c1ccccc1)c1ccccc1.O=P(c1ccccc1)(c1ccccc1)c1ccccc1.[O-][Cl+3]([O-])([O-])O.[O]=[U+2]=[O]
survivor count (dose: 25.0 mg/kg/injection, schedule: Q01DX009 (ip), vehicle: saline with Tween-80): 4 of 6 | survivor count [3]: 1 of 6 | survivor count [5]: 0 of 6 | survivor count [8]: 0 of 6

Cc1cccc(-c2nc3c(C)nc(-c4ccccc4)nc3n2Nc2ccccc2)c1
survivor count (dose: 200.0 mg/kg/injection, schedule: Q01DX001 (ip), vehicle: Klucel (hydroxypropylcellulose) (HPC)): 6 of 6 | survivor count (dose: 400.0 mg/kg/injection, schedule: Q01DX001 (ip), vehicle: Klucel (hydroxypropylcellulose) (HPC)): 6 of 6

O=C(CNC(=O)Nc1ccc(C2=NCCN2)cc1)Nc1ccc(C2=NCCN2)cc1
T/C [3]: 131 % of control

CCCCCCCCCC[N+]1(CC)CCCC1
survivor count (dose: 12.5 mg/kg/injection, schedule: Q01DX009 (ip), vehicle: saline): 2 of 6 | survivor count [4]: 0 of 6 | survivor count [6]: 1 of 6 | survivor count [7]: 0 of 6

CCc1nc(N)nc(N)c1-c1ccc([N+](C)(C)C)cc1
survivor count [9]: 3 of 6 | survivor count [10]: 0 of 6 | survivor count [2]: 0 of 6

COc1cc2c(cc1-c1coc3cc(O)ccc3c1=O)OCO2
survivor count (dose: 8.5 mg/kg/injection, schedule: Q01DX005 (ip), vehicle: Klucel (hydroxypropylcellulose) (HPC)): 6 of 6 | survivor count (dose: 17.0 mg/kg/injection, schedule: Q01DX005 (ip), vehicle: Klucel (hydroxypropylcellulose) (HPC)): 6 of 6 | survivor count (dose: 34.0 mg/kg/injection, schedule: Q01DX005 (ip), vehicle: Klucel (hydroxypropylcellulose) (HPC)): 6 of 6

Clc1cccc(NCNC2Nc3ccccc3N2)c1
survivor count (dose: 60.0 mg/kg/injection, schedule: Q01DX005 (ip), vehicle: saline with Tween-80): 6 of 6 | survivor count (dose: 120.0 mg/kg/injection, schedule: Q01DX005 (ip), vehicle: saline with Tween-80): 1 of 6 | survivor count (dose: 240.0 mg/kg/injection, schedule: Q01DX005 (ip), vehicle: saline with Tween-80): 0 of 6

CN(C(=[Se])[Se]C(=[Se])N(C)C1CCCCC1)C1CCCCC1
survivor count [1]: 0 of 6

CCn1c(C)c(COC(=O)NC)c(COC(=O)NC)c1-c1ccc(Cl)c(Cl)c1
T/C [11]: 149 % of control [4 of 6 alive] | survivor count [11]: 5 of 6 | survivor count (dose: 100.0 mg/kg/injection, schedule: Q01DX009 (ip), vehicle: distilled water + Tween-80): 0 of 6 and 3 of 6

CCC(=O)NC(CC(C)C)C(=O)O (stereo unspecified)
survivor count [4]: 6 of 6 | survivor count [6]: 6 of 6

CCCCCCCCCCCC1=C(O)C(=O)C(Br)=C(O)C1=O
survivor count (dose: 200.0 mg/kg/injection, schedule: Q01DX005 (ip), vehicle: saline with Tween-80): 0 of 6

NCCCNCCCCNC(=O)C(O)NC(=O)CC(O)CCCCN=C(N)N (stereo unspecified)
T/C (dose: 12.5 mg/kg/injection, schedule: Q01DX005 (ip), vehicle: saline): 145 % of control | T/C (dose: 25.0 mg/kg/injection, schedule: Q01DX005 (ip), vehicle: saline): 142 % of control | survivor count (dose: 200.0 mg/kg/injection, schedule: Q01DX005 (ip), vehicle: saline): 0 of 6

CC(=O)Nc1cc2c(cc1Br)-c1ccccc1C2O (stereo unspecified)
survivor count (dose: 5.0 mg/kg/injection, schedule: Q01DX009 (ip), vehicle: saline with Tween-80): 6 of 6 | survivor count (dose: 10.0 mg/kg/injection, schedule: Q01DX009 (ip), vehicle: saline with Tween-80): 6 of 6 | survivor count (dose: 100.0 mg/kg/injection, schedule: Q04DX003 (ip), vehicle: saline with Tween-80): 0 of 6 | survivor count (dose: 200.0 mg/kg/injection, schedule: Q04DX003 (ip), vehicle: saline with Tween-80): 0 of 6 | survivor count (dose: 400.0 mg/kg/injection, schedule: Q04DX003 (ip), vehicle: saline with Tween-80): 0 of 6

NS(=O)(=O)c1cc(Cl)cc(Cl)c1O
survivor count [8]: 0 of 6

CN(C)CCCOc1ccccc1NC1=C(Cl)C(=O)C(Nc2ccccc2OCCCN(C)C)=C(Cl)C1=O
survivor count [9]: 4 of 5 | survivor count [10]: 4 of 5 | survivor count [2]: 0 of 5

CC(=O)SC(C(=O)O)C(SC(C)=O)C(=O)O (stereo unspecified)
survivor count (dose: 400.0 mg/kg/injection, schedule: Q01DX009 (ip), vehicle: other): 3 of 6

CC1OC(O[C@H]2/C=C/C=C/C=C/C=C/C=C/C=C/C=C/[C@H](C)[C@@H](O)[C@@H](C)[C@H](C)OC(=O)C[C@H](O)C[C@H](O)CC[C@@H](O)[C@H](O)C[C@H](O)C[C@]3(O)C[C@H](O)[C@@H](C(=O)O)[C@H](C2)O3)C(O)C(N)C1O (stereo partly specified)
T/C (dose: 16.0 mg/kg/injection, schedule: Q01DX009 (ip), vehicle: saline): 127 % of control | survivor count (dose: 32.0 mg/kg/injection, schedule: Q01DX009 (ip), vehicle: saline): 2 of 6 and 3 of 6 | survivor count (dose: 64.0 mg/kg/injection, schedule: Q01DX009 (ip), vehicle: saline): 0 of 6 | survivor count (dose: 128.0 mg/kg/injection, schedule: Q01DX009 (ip), vehicle: saline): 0 of 6

ClC(Cl)(Cl)c1nc2nccnc2[nH]1
survivor count [3]: 5 of 6 | survivor count [5]: 5 of 6

CC1(COCCOCC2(C)CO2)CO1 (stereo unspecified)
T/C [7]: 131 % of control | T/C (dose: 264.0 mg/kg/injection, schedule: Q01DX009 (ip), vehicle: saline sonified): 145 % of control
